For eight molecules, binding results are on record in patent publication US20050136053A1 (DYAX, published 2005).

The chains behind the UniProt entries cited, without tags or fusion partners. Where a name states a change or a piece, a line headed by the entry shows the natural chain unless it says otherwise.
UniProt P35590: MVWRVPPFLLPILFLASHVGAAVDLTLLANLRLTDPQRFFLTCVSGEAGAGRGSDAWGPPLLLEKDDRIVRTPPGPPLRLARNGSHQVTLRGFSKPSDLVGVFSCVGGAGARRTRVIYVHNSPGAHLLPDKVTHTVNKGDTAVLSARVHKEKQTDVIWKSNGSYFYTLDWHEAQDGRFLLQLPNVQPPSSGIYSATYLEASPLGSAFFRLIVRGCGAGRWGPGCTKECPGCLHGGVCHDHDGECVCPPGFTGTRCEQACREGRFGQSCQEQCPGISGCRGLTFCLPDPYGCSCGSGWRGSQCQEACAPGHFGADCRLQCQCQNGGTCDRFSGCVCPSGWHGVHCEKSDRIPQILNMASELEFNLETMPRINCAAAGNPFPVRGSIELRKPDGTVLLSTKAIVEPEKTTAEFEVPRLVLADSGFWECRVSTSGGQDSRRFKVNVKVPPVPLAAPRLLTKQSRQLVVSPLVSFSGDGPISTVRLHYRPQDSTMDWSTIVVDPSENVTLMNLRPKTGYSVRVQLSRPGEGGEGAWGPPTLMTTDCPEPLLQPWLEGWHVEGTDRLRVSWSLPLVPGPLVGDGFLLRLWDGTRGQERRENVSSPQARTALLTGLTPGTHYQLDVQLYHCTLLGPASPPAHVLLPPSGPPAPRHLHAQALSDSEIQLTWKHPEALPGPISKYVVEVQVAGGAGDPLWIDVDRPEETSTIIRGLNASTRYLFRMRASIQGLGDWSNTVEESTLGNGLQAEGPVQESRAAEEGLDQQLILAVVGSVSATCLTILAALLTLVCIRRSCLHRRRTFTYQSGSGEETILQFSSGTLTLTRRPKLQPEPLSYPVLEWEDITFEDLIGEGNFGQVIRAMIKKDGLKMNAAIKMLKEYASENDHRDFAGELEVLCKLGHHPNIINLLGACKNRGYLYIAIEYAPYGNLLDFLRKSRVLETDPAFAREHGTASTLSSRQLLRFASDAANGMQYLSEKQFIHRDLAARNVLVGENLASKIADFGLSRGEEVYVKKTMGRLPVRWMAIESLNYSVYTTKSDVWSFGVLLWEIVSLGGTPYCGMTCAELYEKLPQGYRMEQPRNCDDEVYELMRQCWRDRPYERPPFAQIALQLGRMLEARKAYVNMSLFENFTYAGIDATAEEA

B1: anti-Tie1 antibody s-A10, IgG (antibody, V domains shown)
VH: EVQLLESGGGLVQPGGSLRLSCAASGFTFSNYVMVWVRQAPGKGLEWVSGIYPSGGHTKYADSVKGRFTISRDNSKNTLYLQMNSLRAEDTAVYYCARVNYYDSSGYGPIAPGLDYWGQGTLV
VL: DIQMTQSPGTLSLSPGERATLFCRASQRVTSNSLAWYQQRPGQAPRLLIYDASTRATGIPDRFSGSGSGRDFTLTISRLEPEDFAVYYCQRYGSSVLYSFGQGTKLEIT
B2: anti-Tie1 antibody s-C7, IgG (antibody, V domains shown)
VH: EVQLLESGGGLVQPGGSLRLSCAASGFTFSRYVMYWVRQAPGKGLEWVSVIYPSGGATYYADSVKGRFTISRDNSKNTLYLQMNSLRAEDTAVYYCARRGSSGAFDYWGQGTLVTVSS
VL: AQSVLTQPASVSGSPGQSITISCTGTSSDIGRYNYASWYQQRPGKSPKLLIYEVSDRPSGVSNRFSGSKSGNTASLIISGLQAEDEADYYCSSYSSTNSLQVVFGGGTKLSVLG
B3: anti-Tie1 antibody p-F3, IgG (antibody, V domains shown)
VH: EVQLLESGGGLVQPGGSLRLSCAASGFTFSMYGMGWVRQAPGKGLEWVSVISPSGGQTAYADSVKGRFTISRDNSKNTLYLQMNSLRAEDTAVYYCARVALLLGHAFDIWGQGTMVTVSS
VL: DIQMTQSPSTLSASLGDRVTITCRASESISRWLAWYQQKPGKAPKLLMYEASTLESGVPSRFTGTGSGTEFTLTISSLQPDDFATYYCQQRSNWPLTFGGG
B4: anti-Tie1 antibody s-A2, IgG (antibody, V domains shown)
VH: EVQLLESGGGLVQPGGSLRLSCAASGFTFSRYTMMWVRQAPGKGLEWVSGIYPSGGVTLYADSVKGRFTISRDNSKNTLYLQMNSLRAEDTAVYYCARVNYYDSSGYGPIAPGLDYWGQGTLVTVSS
VL: DIQMTQSPGTLSLSPGERATLSCRASRSVIISYVAWYQQKPGQAPRLLIYGASTRATGIPDRFSGSGSGTDFTLTISRLEPEDFAVYFCQLYGRSPRIIFGQGTRLEIK
B5: anti-Tie1 antibody s-C10, IgG (antibody, V domains shown)
VH: B4 VH with R31A, T33G, M35S, G50V, V57W, L59Y
VL: DIQMTQSPGTLSLSPGERATLSCRASQSVSSSYLAWYQQKPGQAPRLLIYGASSRATGIPDRFSGSGSGTDFTLTISRLEPEDFAVYYCQQYNNWPRTFGQGTKVEIK
B6: anti-Tie1 antibody s-B9, IgG (antibody, V domains shown)
VH: B4 VH with R31S, T33V, V57W, L59Y, A61T
VL: DIQMTQSPSSLSASVGDRVTITCRASQSVSSHLSWFQQRPGKAPNLLIYHASSLQSGVPSRFSGSGSGTDFTLTISSLQPEDFATYYCQQSYATSSITFGQGTRLDIK
B7: anti-Tie1 antibody s-C2, IgG (antibody, V domains shown)
VH: B4 VH with T33K, M35K, G50V, V57G, L59G
VL: AQSVLTQPDSVSGSPGESITISCTGSSRDVGGYNYVSWYQQHPGKAPKLLLYDVTYRPSGISGRFSGSKSGDTASLTISGLRTEDEADYYCSSSIGTRTYVFGSGTKVTVLR
B8: anti-Tie1 antibody s-H4, IgG (antibody, V domains shown)
VH: EVQLLESGGGLVQPGGSLRLSCAASGFTFSSYKMGWVRQAPGKGLEWVSSIYPSGGWTHYADSVKGRFTISRDNSKNTLYLQMNSLRAEDTAVYYCARVLLHYFDYWGQGTLV
VL: AQSVLTQPASVSGSPGQSITISCTGTSSDVGGYKYVSWYQQHPGKAPKLIISDVNNRPSGVSDRFSGSKSGNTASLTISGLQAEDDGDYYCSSYASSSYTSSTTWVFGGGTKLTVLG

Numbering of substitutions follows the chain as printed. Results are given in words; binding and its absence hold for the method and conditions named. Some entries that bind do so weakly or less than the wild type.

In the first test the target is V5-tagged full length human Tie1 expressed in COS1 cells (pcDNA3-Tie1-V5) (human) (UniProt P35590). As to the kind of experiment: Western blot, Tie1-V5-transfected COS1 cells.
With B1, the binding result is recorded as “binds”.

Regarding B2, the binding entry is listed as “binds”.

Take B3: the binding result is given as “binds”.

For B4, the binding result was “binds”.

On to B5, for which the binding result was “binds”.

As to B6, the binding result is given as “binds”.

With B7, the binding entry was “binds”.

Take B8: the binding result is reported as “binds”.

A further test addresses endogenous human Tie1 (primary human endothelial cells, HUVEC, human tissue sections, SW480 cells) (human) (UniProt P35590). Put plainly: immunoprecipitation, HDMEC.
As for B1, the binding entry is listed as “binds”.

Take B2: the binding result is on record as “binds”.

Regarding B4, the binding result is reported as “binds”.

As for B5, the binding entry is listed as “binds”.

Take B6: the binding result was “binds”.

B7: the binding entry was “binds”.

Consider B8, for which the binding entry is listed as “binds”.

Another test has as its target V5-tagged full length human Tie1 expressed in COS1 cells (pcDNA3-Tie1-V5) (human) (UniProt P35590). As to the kind of experiment: immunoprecipitation, Tie1-V5-transfected COS1 cells.
For B1, the binding entry is given as “binds”.

With B2, the binding entry is on record as “binds”.

B4: the binding result is given as “binds”.

For B5, the binding result is “binds”.

In the case of B6, the binding result is “binds”.

Regarding B7, the binding result is listed as “binds”.

Consider B8, for which the binding entry was “binds”.

Another test shares this target. Put plainly: immunofluorescence, Tie1-V5-transfected COS1 cells.
In the case of B1, the binding entry was “binds”.

For B2, the binding result is given as “binds”.

As to B3, the binding entry is on record as “binds”.

As for B4, the binding result is “binds”.

In the case of B5, the binding result is reported as “binds”.

Regarding B6, the binding entry was “binds”.

Turning to B7, the binding entry was “binds”.

Turning to B8, the binding entry was “binds”.

The next test addresses endogenous human Tie1 (primary human endothelial cells, HUVEC, human tissue sections, SW480 cells) (human) (UniProt P35590). Put plainly: Western blot, HDMEC; Western blot, HDMEC. Background: A western blot detects proteins with antibodies after separation by electrophoresis.
As to B3, the binding result is recorded as “binds”.

The next test has the same target. As to the kind of experiment: Western blot, HDMEC.
With B1, the binding entry was “binds”.

B2: the binding entry is “binds”.

For the molecule B4, the binding entry is on record as “binds”.

B5: the binding result is reported as “binds”.

For B6, the binding entry is reported as “binds”.

Take B7: the binding entry is listed as “binds”.

Turning to B8, the binding result was “binds”.

A further test has the same target. As to the kind of experiment: immunofluorescence, HDMEC.
On to B1, for which the binding entry is listed as “binds”.

With B2, the binding result is on record as “binds”.

Regarding B4, the binding entry is “binds”.

B5: the binding result was “binds”.

In the case of B6, the binding entry is reported as “binds”.

B7: the binding result is on record as “binds”.

Consider B8, for which the binding result is given as “binds”.

The target of a further test is V5-tagged full length human Tie1 expressed in COS1 cells (pcDNA3-Tie1-V5) (human) (UniProt P35590). Put plainly: Western blot, immunoprecipitation and immunofluorescence.
As for B1, the binding result is given as “binds”.

Consider B2, for which the binding result is on record as “binds”.

For the molecule B3, the binding entry is recorded as “binds”.

Turning to B4, the binding entry was “binds”.

For the molecule B5, the binding result is given as “binds”.

As for B6, the binding result is reported as “binds”.

In the case of B7, the binding result is “binds”.

As for B8, the binding result is given as “binds”.

The target in a further test is endogenous human Tie1 (primary human endothelial cells, HUVEC, human tissue sections, SW480 cells) (human) (UniProt P35590). The description is as above.
Consider B1, for which the binding entry is listed as “binds”.

For the molecule B2, the binding result is “binds”.

In the case of B4, the binding entry was “binds”.

As for B5, the binding entry is “binds”.

As to B6, the binding entry is “binds”.

Consider B7, for which the binding result is “binds”.

As for B8, the binding entry is on record as “binds”.

The target is the same in another test. Put plainly: immunofluorescence, HDMEC; immunofluorescence, HDMEC.
On to B3, for which the binding result was “binds”.
